The target of this test is human FXI antigen expressed in 293F cells (human) (UniProt P03951). As to the kind of experiment: ELISA on coated human FXI (293F-expressed, 1 µg/mL), HRP goat anti-human secondary antibody, OD450. Background: ELISA stands for enzyme-linked immunosorbent assay.

By UniProt entry, the sequences of proteins in these tests, tags left out. Residues count along the entry.
UniProt P03951, residues 19-625: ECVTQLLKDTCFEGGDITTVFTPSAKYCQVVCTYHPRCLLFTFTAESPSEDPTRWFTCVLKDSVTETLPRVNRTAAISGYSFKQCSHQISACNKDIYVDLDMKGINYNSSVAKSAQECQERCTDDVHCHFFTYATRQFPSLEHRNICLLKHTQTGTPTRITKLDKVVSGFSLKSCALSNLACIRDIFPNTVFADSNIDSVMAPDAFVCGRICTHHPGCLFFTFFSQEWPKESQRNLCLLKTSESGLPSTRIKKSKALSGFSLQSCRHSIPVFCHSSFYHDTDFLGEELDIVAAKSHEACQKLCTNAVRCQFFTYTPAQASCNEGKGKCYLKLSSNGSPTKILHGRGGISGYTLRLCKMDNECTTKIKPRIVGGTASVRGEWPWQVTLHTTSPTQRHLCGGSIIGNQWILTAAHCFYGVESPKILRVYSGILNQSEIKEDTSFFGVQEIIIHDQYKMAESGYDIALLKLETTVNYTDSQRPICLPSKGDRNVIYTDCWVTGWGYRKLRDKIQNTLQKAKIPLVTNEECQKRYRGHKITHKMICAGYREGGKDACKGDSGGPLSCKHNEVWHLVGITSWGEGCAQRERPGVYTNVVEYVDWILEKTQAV

These are yes or no findings as the source states them, for the method shown. Some binding calls cover weakened binding; strength is not graded here.

B1: humanized antibody 36G9.10-hz73 (antibody, human IgG1, kappa, N297A, V domains shown)
VH: EVQLVQSGAEVKKPGATVKISCKASGFNIKDTYIHWVQQAPGKGLEWMGRIDPANDNTIYAEKFQGRVTITADTSTNTAYMELSSLRSEDTAVYYCAQDYDGFAMDYWGQGTLVTVSS
VL: DIQMTQSPSSLSASVGDRVTITCKASQDINKYITWFQQKPGKAPKLLIHYTSTLQPGVPSRFSGSGSGRDYTLTISSLQPEDFATYYCLQYDYLLTFGGGTKVEIKR
On to B1, for which the binding entry is “binds”.

The values are drawn from patent US20220162338A1 (SICHUAN KELUN BIOTECH BIOPHARMACEUTICAL, published 2022).
